# PubChem BioAssay AID493246, Drosophila RNAi Screening Center, 2011
# Aim: 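Genes fly cells need to grow and stay alive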 (primary screen)
# Cell system: Drosophila Kc and S2R+ cells
# Reagents: long dsRNA against Drosophila genes
# Measured: 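Raw, unnormalised count of remaining cells in each well; per-plate z-scores of cell number underlie the calls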
# Reading the numbers: Kc cell number and S2R+ cell number: higher = more cells remaining
# Active means: 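Active when the per-plate z-score of cell number is 3 or more in the direction of fewer cells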
# The deposit covers about 21,000 reagents; below is an unselected part of those with a known target gene and a result. Of all reagents, 429 (2%) were called active. 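Values are raw and not normalised between plates; calls rest on per-plate z-scores that were not deposited.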 Unmarked entries are inactive. Names joined by + are all predicted targets of the reagent. Not given: the amount of reagent, the time to read-out.
gene,dsRNA,"Kc cell number, rep 1","Kc cell number, rep 2","S2R+ cell number, rep 1","S2R+ cell number, rep 2"
Lmx1a (GeneID 39406),DRSC09726,1.21e6,1.27e6,1.35e6,1.35e6
Lmx1a (GeneID 39406),DRSC10275,1.26e6 (active),1.25e6,7.34e5,7.93e5
BOD1 (GeneID 43352),DRSC15824,5.19e5,,7.90e5,
CG7140 (GeneID 40445),DRSC11799,1.33e6,1.28e6,1.27e6,1.37e6
Inx7 (GeneID 33027),DRSC18784,1.49e6,1.46e6,1.00e6,1.10e6
CG10126 (GeneID 41579),DRSC14191,1.60e6,1.59e6,1.33e6,1.42e6
Slip1 (GeneID 43809),DRSC17146,4.63e5,,8.06e5,
CR31292 (GeneID 10178952),DRSC13120,1.62e6,1.99e6,1.14e6,1.36e6
CG14071 (GeneID 34507),DRSC02374,1.54e6,1.55e6,1.14e6,1.28e6
Noc3 (GeneID 40870),DRSC12535,1.46e6,1.56e6,1.13e6,1.25e6
5-HT1A (GeneID 37196),DRSC05030,1.47e6,1.49e6,1.15e6,1.27e6
Mrgn1 (GeneID 32330),DRSC20223,7.04e5,,9.25e5,
Ac3 (GeneID 35419),DRSC03692,1.34e6,1.44e6,1.15e6,1.16e6
CG17375 (GeneID 33956),DRSC02614,1.52e6,1.36e6,1.12e6,1.21e6
Elovl7 (GeneID 40943),DRSC15452,1.56e6,1.66e6,1.36e6,1.51e6
Tcs3 (GeneID 39811),DRSC10461,1.31e6,1.50e6,1.31e6,1.41e6
Dnaaf3 (GeneID 37125),DRSC06684,1.58e6,1.63e6,1.24e6,1.40e6
CG7573 (GeneID 39272),DRSC10884,1.30e6,1.27e6,1.28e6,1.40e6
CG10086 (GeneID 40920),DRSC14183,1.53e6,1.68e6,1.13e6,1.22e6
CG6066 (GeneID 43267),DRSC15959,1.57e6,1.58e6,1.10e6,1.14e6
CG32302 (GeneID 38293),DRSC08340,1.46e6,1.31e6,1.02e6,1.29e6
Ugt37C1 (GeneID 53583),DRSC07416,1.61e6,1.62e6,1.17e6,1.33e6
CG33278 (GeneID 2768946),DRSC10336,1.69e6,1.65e6,1.20e6,1.18e6
CG4661 (GeneID 32238),DRSC19910,1.58e6,1.56e6,9.82e5,1.15e6
pic (GeneID 41611),DRSC16639,1.61e6,1.73e6,1.06e6,1.18e6
CG4666 (GeneID 31541),DRSC18379,1.57e6,1.58e6,1.12e6,1.25e6
CG10352 (GeneID 32147),DRSC19353,1.71e6,1.61e6,1.08e6,1.19e6
fat-spondin (GeneID 36919),DRSC07617,1.37e6,1.42e6,1.23e6,1.30e6
CG12682 (GeneID 31415),DRSC17873,1.55e6,1.52e6,1.14e6,1.30e6
CG10068 (GeneID 40852),DRSC12508,1.63e6,1.63e6,1.31e6,1.41e6
MED14 (GeneID 38073),DRSC08235,8.70e5 (active),9.58e5,7.17e5,7.52e5
CG16727 (GeneID 42338),DRSC15139,1.26e6,1.23e6,1.06e6,1.16e6
Sirt7 (GeneID 43433),DRSC14294,5.81e5,,8.44e5,
Corin (GeneID 35691),DRSC06818,1.63e6,1.73e6,1.30e6,1.44e6
su(sable) (GeneID 31012),DRSC18839,1.44e6,1.44e6,9.91e5,1.12e6
CG32795 (GeneID 31270),DRSC18609,1.47e6,1.45e6,9.90e5,1.07e6
CG32795 (GeneID 31270),DRSC18610,1.46e6,1.47e6,9.94e5,1.11e6
ABCB7 (GeneID 38193),DRSC08603,1.41e6,1.38e6,1.03e6,1.24e6
Stacl + CG8179 (retired record),DRSC07091,3.26e5 (active),4.72e5,4.53e5,5.45e5
tj (GeneID 35227),DRSC02011,1.56e6,1.69e6,1.17e6,3.23e5
Cks30A (GeneID 34250),DRSC03292,1.39e6,1.36e6,1.18e6,1.24e6
CG16787 (GeneID 37811),DRSC04282,1.67e6,1.68e6,1.37e6,1.41e6
Apoltp (GeneID 34283),DRSC02508,1.29e6,1.32e6,1.17e6,1.23e6
wgn (GeneID 32849),DRSC19998,1.62e6,1.66e6,1.01e6,1.17e6
CG30496 (GeneID 246652),DRSC06805,1.42e6,1.61e6,1.10e6,9.99e5
CG13837 (GeneID 42720),DRSC14687,1.87e6,1.72e6,1.06e6,1.20e6
CG16976 (retired record) (GeneID 38336),DRSC08499,1.38e6,1.29e6,1.04e6,1.21e6
CG8833 (GeneID 39535),DRSC11050,1.50e6,1.65e6,1.32e6,1.33e6
CG17821 (GeneID 37159),DRSC06696,1.66e6,1.64e6,1.27e6,1.34e6
CG12241 (GeneID 41834),DRSC14481,1.45e6,1.49e6,1.27e6,1.29e6
alphaTub85E (GeneID 41183),DRSC16899,1.49e6 (active),1.54e6,7.62e5,8.38e5
CG9705 (GeneID 39875),DRSC11094,1.65e6,1.61e6,1.18e6,1.22e6
rt (GeneID 39297),DRSC11391,1.42e6,1.34e6,1.38e6,1.37e6
CG33332 (GeneID 2768669),DRSC15504,1.39e6,1.47e6,1.24e6,1.39e6
Polr2K (GeneID 5740790),DRSC05535,1.90e6,1.95e6,1.05e6,1.20e6
ND-B17 (GeneID 34925),DRSC01981,1.38e6,1.43e6,1.16e6,1.32e6
park (GeneID 40336),DRSC11618,1.51e6,1.55e6,1.46e6,1.51e6
CG9784 (GeneID 32629),DRSC20210,1.46e6,1.40e6,1.07e6,1.14e6
CG40006 (GeneID 3355123),DRSC03787,5.57e5,,9.04e5,
CG40006 (GeneID 3355123),DRSC03809,6.35e5,,8.39e5,
CG40006 (GeneID 3355123),DRSC03814,5.04e5,,8.98e5,
CG40006 (GeneID 3355123),DRSC03817,5.59e5,,8.12e5,
CG4511 (GeneID 41305),DRSC15589,1.44e6,1.49e6,1.31e6,1.39e6
CG1979 (GeneID 40837),DRSC12495,1.58e6,1.66e6,1.39e6,1.46e6
CG12438 (GeneID 34202),DRSC02167,1.64e6,1.63e6,1.11e6,1.29e6
beat-IIIb (GeneID 35031),DRSC02435,1.53e6,1.59e6,1.26e6,1.38e6
CG11034 (GeneID 33810),DRSC02121,1.54e6,1.46e6,1.24e6,1.38e6
CG11034 (GeneID 33810),DRSC02122,1.59e6,1.51e6,1.23e6,1.41e6
Rs1 (GeneID 44087),DRSC05945,1.35e6,1.45e6,9.53e5,9.65e5
CG9426 (GeneID 34719),DRSC03219,1.57e6,1.56e6,1.09e6,1.26e6
CG5162 (GeneID 32709),DRSC19935,1.54e6,1.55e6,1.18e6,1.33e6
Ir7c (GeneID 31692),DRSC18007,1.53e6,1.51e6,1.05e6,1.23e6
S-Lap8 (GeneID 36844),DRSC06870,1.43e6,1.44e6,1.02e6,1.20e6
Ptr (GeneID 35546),DRSC04852,1.63e6,1.60e6,1.40e6,1.50e6
MME1 (GeneID 33987),DRSC02714,1.36e6,1.53e6,2.89e5,2.29e5

A stretch of the results above, as a working copy:
gene,dsRNA,"Kc cell number, rep 1","Kc cell number, rep 2","S2R+ cell number, rep 1","S2R+ cell number, rep 2"
Apoltp (GeneID 34283),DRSC02508,1.29e6,1.32e6,1.17e6,1.23e6
wgn (GeneID 32849),DRSC19998,1.62e6,1.66e6,1.01e6,1.17e6
CG30496 (GeneID 246652),DRSC06805,1.42e6,1.61e6,1.10e6,9.99e5
CG13837 (GeneID 42720),DRSC14687,1.87e6,1.72e6,1.06e6,1.20e6
CG16976 (retired record) (GeneID 38336),DRSC08499,1.38e6,1.29e6,1.04e6,1.21e6
CG8833 (GeneID 39535),DRSC11050,1.50e6,1.65e6,1.32e6,1.33e6
CG17821 (GeneID 37159),DRSC06696,1.66e6,1.64e6,1.27e6,1.34e6
CG12241 (GeneID 41834),DRSC14481,1.45e6,1.49e6,1.27e6,1.29e6
alphaTub85E (GeneID 41183),DRSC16899,1.49e6 (active),1.54e6,7.62e5,8.38e5
CG9705 (GeneID 39875),DRSC11094,1.65e6,1.61e6,1.18e6,1.22e6
rt (GeneID 39297),DRSC11391,1.42e6,1.34e6,1.38e6,1.37e6
CG33332 (GeneID 2768669),DRSC15504,1.39e6,1.47e6,1.24e6,1.39e6
Polr2K (GeneID 5740790),DRSC05535,1.90e6,1.95e6,1.05e6,1.20e6
